# Some of the results follow.
# The chains behind the UniProt entries cited, without tags or fusion partners.
# UniProt Q0JBA9, entry or part of it: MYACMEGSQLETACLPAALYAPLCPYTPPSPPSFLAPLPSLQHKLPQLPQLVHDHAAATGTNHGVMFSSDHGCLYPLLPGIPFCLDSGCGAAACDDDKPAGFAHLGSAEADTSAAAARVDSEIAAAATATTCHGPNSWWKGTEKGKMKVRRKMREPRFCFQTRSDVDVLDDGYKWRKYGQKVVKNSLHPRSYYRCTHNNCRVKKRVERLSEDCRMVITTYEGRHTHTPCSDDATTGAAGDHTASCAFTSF
# Molecular target: OsWRKY34 (Oryza sativa, UniProt Q0JBA9 1-250)
# Experiment: protein-binding microarray (RPBM); PBS, 2% BSA, 51.3 ng/ul salmon testes DNA, 50 uM zinc acetate, 200 nM TF, 25 C, 1 h; high values mean tight binding
# Details: protein: recombinant; tags: N-terminal polyhistidine and DsRed monomer fusion (pET32a); label: CyDye5-dUTP incorporated in the synthesized complementary strand; 3' TTTTT single-stranded linker to array surface; dsDNA, one strand shown
# How it was run: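 An Axon 4000B scanner gave the binding signal as per-feature fluorescence intensity in arbitrary units. This followed washing of a custom Agilent array that had been incubated for 1 h at 25 °C with 200 nM protein in PBS, 2% BSA, salmon testes DNA and 50 µM zinc acetate. The proteins were transcription factors fused at the N-terminus to polyhistidine and DsRed, expressed in E. coli BL21-CodonPlus and purified on Ni–NTA.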
row,Sequence,binding signal
1,ACTCGAATTCACCTTCACCTTCAGCGCGAGCCGCGAGCGACGGAGTCACCTAGTGCAG,10100 fluorescence intensity (a.u.)
2,CATTATATATCCATGCATCACACACACACACACACATGCTCGGAGTCACCTAGTGCAG,8450 fluorescence intensity (a.u.)
3,AGTAATATAGTTCATGTTTTAGTTTTCGTTGTAGTCTATACGGAGTCACCTAGTGCAG,8160 fluorescence intensity (a.u.)
4,CTTTTTTGCTTACACCGTTGTAAGTCCAGCAGCAAGGCCACGGAGTCACCTAGTGCAG,8550 fluorescence intensity (a.u.)
5,TCTTCCAACGGTTGCTCTCCTCTCTTCCGAGTTCCGACTTCGGAGTCACCTAGTGCAG,8860 fluorescence intensity (a.u.)
6,CGAATAGAAAAGCAACCGCAATCAAACCAAAATTCGCCCACGGAGTCACCTAGTGCAG,10800 fluorescence intensity (a.u.)
7,GCGTGTCTCTTATGGAGTTTTGATTTGTGTGCTGGTGACTCGGAGTCACCTAGTGCAG,12500 fluorescence intensity (a.u.)
8,CAACGTACTACGAGCTTTTCGTTCCATGTAACCGTCATCGCGGAGTCACCTAGTGCAG,9100 fluorescence intensity (a.u.)
9,GGGTTTTGCTTTTGCTGTTGTCTTGGGCTTGGGCCTTTGCCGGAGTCACCTAGTGCAG,8660 fluorescence intensity (a.u.)
10,GCTGTGGGGAGATGGGACTTTAGATTTTTGAAATTGATGACGGAGTCACCTAGTGCAG,12000 fluorescence intensity (a.u.)
11,GCAGCCCTCAATTTCTATGGCGATCGCCTCTGCTTCGTCGCGGAGTCACCTAGTGCAG,8440 fluorescence intensity (a.u.)
12,ACTGTCATGCAAATGCTTTGGTTTGTTCTCTGTACATTCCCGGAGTCACCTAGTGCAG,8560 fluorescence intensity (a.u.)
13,ATCAATGTTTTTGTTCTTGGATTTGCAATGCTTACGAAATCGGAGTCACCTAGTGCAG,9290 fluorescence intensity (a.u.)
14,TTTTGCATGTTCTATTGCATCCTTGAAAGCTATGTGCTTTCGGAGTCACCTAGTGCAG,8450 fluorescence intensity (a.u.)
15,CGCGCTGAAAGATTCGCTTTCTTGGTTGGTTGGTTGATCGCGGAGTCACCTAGTGCAG,11000 fluorescence intensity (a.u.)
16,TTCTACTGGCGTTCCCTCACACATTTATTCCAATTCATTCCGGAGTCACCTAGTGCAG,8320 fluorescence intensity (a.u.)
17,ACGCATCATTATGGCCACTGCTGTTCCCATCCATCTCCAGCGGAGTCACCTAGTGCAG,8670 fluorescence intensity (a.u.)
18,GCGTCTCCTCAACCAATCGCCATTTGCCGCGCCTTATCCACGGAGTCACCTAGTGCAG,9290 fluorescence intensity (a.u.)
19,CCCCGTTTTTTTTCTGGGTGTAGCGGTGGAGTTGCTTGGGCGGAGTCACCTAGTGCAG,8040 fluorescence intensity (a.u.)
20,TCTGGCTCCATGCTGTCACCTGCCATTGCAAGTTTGCAACCGGAGTCACCTAGTGCAG,8650 fluorescence intensity (a.u.)
21,AATTATATTCACGGTCTATTGTTTGTCCTAGCTAAAATATCGGAGTCACCTAGTGCAG,8080 fluorescence intensity (a.u.)
22,GTACAACGCAGGCGCTCACAAGTCACGTCCACTCATCCCTCGGAGTCACCTAGTGCAG,9980 fluorescence intensity (a.u.)
23,ATTTAATGGGTTGATTCGTTCTTAGATGGCTAGCAATAATCGGAGTCACCTAGTGCAG,9790 fluorescence intensity (a.u.)
24,CTCTATCAGGGATGGTCAGCTGGAGTTCGTGTGCATCAGTCGGAGTCACCTAGTGCAG,8310 fluorescence intensity (a.u.)
25,AGCACTGTAGCTGACCCACTACTGCCCCAGTCAAGCCGCGCGGAGTCACCTAGTGCAG,8750 fluorescence intensity (a.u.)
26,GGTCTGAACTCTCGAGTCTAATATTGTATTTCTTGTATTTCGGAGTCACCTAGTGCAG,15000 fluorescence intensity (a.u.)
27,AAATTTCTACTGTCATGCTTCCTTGTCCCATTACTACATCCGGAGTCACCTAGTGCAG,9500 fluorescence intensity (a.u.)

# Not a retest: an excerpt of the list.
row,Sequence,binding signal
10,GCTGTGGGGAGATGGGACTTTAGATTTTTGAAATTGATGACGGAGTCACCTAGTGCAG,12000 fluorescence intensity (a.u.)
11,GCAGCCCTCAATTTCTATGGCGATCGCCTCTGCTTCGTCGCGGAGTCACCTAGTGCAG,8440 fluorescence intensity (a.u.)

# The listing continues:

row,Sequence,binding signal
1,GGGCTGGCCTTCTTTGACACAAGCATCTTAAATCTGTATCCGGAGTCACCTAGTGCAG,8070 fluorescence intensity (a.u.)
2,GAGGTGGTGGAGCGAGGTGGAAGAGGGCGCGGGTGGCGGGCGGAGTCACCTAGTGCAG,9480 fluorescence intensity (a.u.)
3,TCGCCTATCTCTCTATCTCTTTCGCCACCGCTTGCCTCTCCGGAGTCACCTAGTGCAG,9030 fluorescence intensity (a.u.)
4,CGCATTCTCGTCGTGTCTGGTTTGAGCTGCTGCTGCTGCTCGGAGTCACCTAGTGCAG,9710 fluorescence intensity (a.u.)
5,TACCGATGGGGCTCTTATACTCCAACTCTTGCCCTGTTTACGGAGTCACCTAGTGCAG,9020 fluorescence intensity (a.u.)
6,AGTCACGGGTACATAGGGTGTGGTTAGATCTTTTTTTTTCCGGAGTCACCTAGTGCAG,12100 fluorescence intensity (a.u.)
7,TGGTTTCATCTATTTTCTTTGTTTTTTTATGTCTATTGAACGGAGTCACCTAGTGCAG,12100 fluorescence intensity (a.u.)
8,GGGGTGTTTTTTTTTTGCAATTTTTTTCTTTAAAATTGTACGGAGTCACCTAGTGCAG,13700 fluorescence intensity (a.u.)
9,CGCTGCTCTCACTGTCGTCACCCGCGTGGCCACGTCGATGCGGAGTCACCTAGTGCAG,9100 fluorescence intensity (a.u.)
10,GGTCTCGGTCGGTCTACTATCTCCATGCGCTCACGTTCCACGGAGTCACCTAGTGCAG,13000 fluorescence intensity (a.u.)
11,TAATGTATAACGCCGTTAACTTTTTAACAAACGTTTGACCCGGAGTCACCTAGTGCAG,8430 fluorescence intensity (a.u.)
12,CCATCTGCGGCGTACTTGCCACTTTTCTTCGATCGGCACCCGGAGTCACCTAGTGCAG,8510 fluorescence intensity (a.u.)
13,TAAGTTTGACTTTTGGGGAATTTAATCTAATCCAGCGTGGCGGAGTCACCTAGTGCAG,11300 fluorescence intensity (a.u.)
14,ATCCTGGCCAAAATGCTTCTCTCACACCGGTTTGTACACGCGGAGTCACCTAGTGCAG,8290 fluorescence intensity (a.u.)
15,TCTTTGTCTCCAACTCCCTCGTCTCCTTGTACGCCAAGTTCGGAGTCACCTAGTGCAG,8220 fluorescence intensity (a.u.)
16,ACCGAAACTGCTTGCATCACCGCTGATATCATCGCCTCCACGGAGTCACCTAGTGCAG,11000 fluorescence intensity (a.u.)
17,ACTCCCTACGTCTGTCCAGACGTTTTTCTTAGTCAATTTTCGGAGTCACCTAGTGCAG,8360 fluorescence intensity (a.u.)
18,TCCACTAATCCACGAAACTCTCAGCTCATCCACACACATCCGGAGTCACCTAGTGCAG,10500 fluorescence intensity (a.u.)
19,GCCGTCCACTCCTCAACCGCGTCTCCGCTGTTTCCTTAGCCGGAGTCACCTAGTGCAG,11600 fluorescence intensity (a.u.)
20,GGCACTTGATGTGGTTGGCCATTGTCTTGATTATAACCTCCGGAGTCACCTAGTGCAG,8650 fluorescence intensity (a.u.)
21,CATGGCCTAGTTGGGGTGTTGCGTATGTAATTTATCTGTCCGGAGTCACCTAGTGCAG,8100 fluorescence intensity (a.u.)
22,GCCCACTTCCCAACTGCTACGTCTGCTTGCGTCGAGAGTCCGGAGTCACCTAGTGCAG,10700 fluorescence intensity (a.u.)
23,ACTTTAAACACAACTTTTCTTTTTTTATATTTGCATAAATCGGAGTCACCTAGTGCAG,9210 fluorescence intensity (a.u.)
24,CGACCTGCATATCACTGTACATAAGCTCAAGTTTTAAATCCGGAGTCACCTAGTGCAG,8760 fluorescence intensity (a.u.)
25,CAACAAACTATTCTTTGCTGTGTCCATTTGTTTCCATTCCCGGAGTCACCTAGTGCAG,10400 fluorescence intensity (a.u.)
26,ATTTTTATACGGACTCTAAACTCTACTTTTAATTTTATTACGGAGTCACCTAGTGCAG,8490 fluorescence intensity (a.u.)
27,TGGGGTCGGCACACTGTATTCCAATCGACCAAACAATTGCCGGAGTCACCTAGTGCAG,8250 fluorescence intensity (a.u.)

# From paper PMC7819943, “Rice protein-binding microarrays: a tool to detect cis-acting elements near promoter regions in rice”
